From patent US20220048884A1, “NRF2 ACTIVATOR” (BIOGEN MA INC., priority 2017, published 2022)
Some results were stated once for a whole list of compounds, not compound by compound.

Test system: NRF2
Assay: PathHunter Nuclear Translocation assay (DiscoverX), agonist format
Type: cell-based
Details: read-out: EC50 (NRF2 TRANSLOCATION); 6 hours incubation, 10 concentrations, 30 μM top concentration
Text: Vehicle concentration was 1%.
Microplates were read following signal generation with a PerkinElmer Envision™ instrument for chemiluminescent signal detection.

How did the EC50 turn out when `CCn1nnc2c(C)c(C(CC(=O)O)c3ccc4c(c3)CN(C(=O)c3cccc(Cl)c3)CC4)ccc21` (stereo not drawn) [Example 10, 3-(2-(3-chlorobenzoyl)-1,2,3,4-tetrahydroisoquinolin-7-yl)-3-(1-ethyl-4-methyl-1H-benzo[d][1,2,3]triazol-5-yl)propanoic acid] was run?
Its EC50 is < 10 µM.

Which EC50 does the source give for `CCn1nnc2c(C)c([C@@H](CC(=O)NN)c3ccc4c(c3)CN(C(=O)c3ccc(C)c(C)c3)CC4)ccc21` [Example 126, (3S)-3-[2-(3,4-dimethylbenzoyl)-3,4-dihydro-1H-isoquinolin-7-yl]-3-(1-ethyl-4-methyl-benzotriazol-5-yl)propanehydrazide] here?
Its EC50 is < 10 µM.

`CCn1nnc2c(C)c(C(CC(=O)O)c3ccc4c(c3)CN(C(=O)Cc3ccccc3)CC4)ccc21` (stereo not drawn) [Example 40, 3-(1-ethyl-4-methyl-1H-benzo[d][1,2,3]triazol-5-yl)-3-(2-(2-phenylacetyl)-1,2,3,4-tetrahydroisoquinolin-7-yl)propanoic acid] was tested. Which EC50 did it give?
The EC50 was < 10 µM.

How did the EC50 turn out when `CCn1nnc2c(C)c(C(CC(=O)O)c3ccc4c(c3)CN(C(=O)N(C)c3ccccc3)CC4)ccc21` (stereo not drawn) [Example 45, 3-(1-ethyl-4-methyl-1H-benzo[d][1,2,3]triazol-5-yl)-3-(2-(methyl(phenyl)carbamoyl)-1,2,3,4-tetrahydroisoquinolin-7-yl)propanoic acid] was run?
The EC50 was > 10 µM.

With `CCn1nnc2c(C)c(C(CC(=O)O)c3ccc4c(c3)CN(C(=O)c3cc(Cl)ccc3Cl)CC4)ccc21` (stereo not drawn) [Example 9, 3-(2-(2,5-dichlorobenzoyl)-1,2,3,4-tetrahydroisoquinolin-7-yl)-3-(1-ethyl-4-methyl-1H-benzo[d][1,2,3]triazol-5-yl)propanoic acid] as the compound, how does the EC50 read?
Its EC50 is < 1 µM.

How did the EC50 turn out when `CCn1nnc2c(C)c(C(CC(=O)O)c3ccc4c(c3)CN(C(=O)c3ccc(C(C)(C)C)cc3)CC4)ccc21` (stereo not drawn) [Example 5, 3-(2-(4-(tert-butyl)benzoyl)-1,2,3,4-tetrahydroisoquinolin-7-yl)-3-(1-ethyl-4-methyl-1H-benzo[d][1,2,3]triazol-5-yl)propanoic acid] was run?
Its EC50 is < 10 µM.
